Primary screen of a compound library

Data taken from ChEMBL document CHEMBL3988442, “University of Dundee, Small-Polar-MMV Screening Library” (2021).

Mtb heat-shock: 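Assay on Mycobacterium tuberculosis, filed only as a heat shock assay from Cornell; the read-out is not stated. The concentration is filed as 10 mM, unlikely as a test dose, so the dose is not known. The record gives no direction; compounds that gave an IC50 in retests scored well above the rest, so higher reads as stronger inhibition. About 69,000 compounds were tested under these conditions; 1.4% (about 930) showed 50% or more at least once.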
Mtb growth Cornell: 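Whole-cell assay for inhibitors of Mycobacterium tuberculosis growth, labelled Cornell in the record; the read-out is not stated. The concentration is filed as 10 mM, unlikely as a test dose, so the dose is not known. Higher means stronger inhibition (inferred from two other growth screens of the library). About 53,000 compounds were tested under these conditions; 1.7% (about 900) showed 50% or more at least once.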

Each number is a percent effect as filed.
The record does not define 0% and 100%; most values in the screen are far below 50% and negative numbers occur (in some assays of this library far below -100).
Compounds were drawn at random from those tested, without regard to their results.
A dash means the value is not listed here; it may have been measured.

With O=C(c1ncoc1-c1ccco1)N1CCCN(c2ncccn2)CC1 the screen gave Mtb heat-shock: -15.55%. CC(C)N(C)S(=O)(=O)N1CCCC1CC(=O)c1cccs1 (centres unmarked) read Mtb heat-shock: -12.77%; Mtb growth Cornell: 0.01667%. For COCCNC(=O)NC(C)COc1ccc(F)cc1F (centres unmarked) the result was Mtb heat-shock: 8.794%. With O=C(NCCCO)c1cnc(-c2ccccc2)nc1O the screen gave Mtb heat-shock: 13.29%. CCOc1ccc(C(F)(F)F)cc1NC(=O)N1CCC(C(N)=O)CC1 gave Mtb heat-shock: -1.468%; Mtb growth Cornell: 8.02%. CC(NC(=O)CCCOc1ccccc1)c1nnc2n1CCCCC2 (centres unmarked) gave Mtb heat-shock: 1.8%; Mtb growth Cornell: 15.48%. For Cc1ccc2nc(C3CCCN3Cc3csc(C)n3)[nH]c2c1 (centres unmarked) the result was Mtb heat-shock: 87.71%; Mtb growth Cornell: 16.4%. Cc1cc(NC(=O)c2ccc(N3CCOCC3)cc2)[nH]n1 gave Mtb heat-shock: 20.19%; Mtb growth Cornell: 29.03%.

Result for COc1ccc(CN(C)Cc2ccnc(C3CCCO3)n2)cc1 (centres unmarked) was Mtb heat-shock: -10.55%; Mtb growth Cornell: 29.89%. Result for CC(=O)Nc1c(C)cnn1Cc1cc(F)ccc1F was Mtb heat-shock: 11.38%; Mtb growth Cornell: 16.97%. O=C(NCCNc1ncccn1)c1cnc(-c2ccccc2)nc1 gave Mtb heat-shock: 6.712%. CC(Sc1nnnn1C1CCOCC1)C(F)(F)F (centres unmarked) gave Mtb heat-shock: 9.931%; Mtb growth Cornell: -21.51%. With CN1CCN([C@@H]2CCN(C(N)=O)[C@H]2Cc2ccccc2)CC1 the screen gave Mtb heat-shock: 11.24%; Mtb growth Cornell: 5.881%. Result for CCNC(=O)c1cn(C(C)(C)C)c2ncccc12 was Mtb heat-shock: 35.45%; Mtb growth Cornell: 6.424%. With Cc1cnn(C2CCCN(C(=O)c3ccc(NC4CC4)nc3)C2)c1 (centres unmarked) the screen gave Mtb heat-shock: -6.269%; Mtb growth Cornell: -14.35%. For Cc1cccc(-c2ncc(CNC(C)CO)cn2)c1 (centres unmarked) the result was Mtb heat-shock: 5.709%; Mtb growth Cornell: 11.64%.

CN(C)S(=O)(=O)N1CCC(Oc2ccc(C#N)cc2)CC1 gave Mtb heat-shock: 9.562%; Mtb growth Cornell: 14.86%. For O=C(N[C@]12CC1CN(C(=O)c1ccco1)C2)c1ccoc1 (some centres unmarked) the result was Mtb heat-shock: -0.4599%. For Cn1cc(N2CCC3(CCCN(C(=O)c4ccnn4C)C3)C2=O)cn1 (centres unmarked) the result was Mtb heat-shock: -0.5132%; Mtb growth Cornell: -11.18%. CC(NC(=O)c1ccc(CS(C)(=O)=O)o1)c1ccc(F)c(F)c1 (centres unmarked) read Mtb heat-shock: 7.935%; Mtb growth Cornell: -8.157%. With COc1cn(CC(=O)N2CCN(c3ccc(F)cc3)CC2)c(C)cc1=O the screen gave Mtb heat-shock: -43.63%; Mtb growth Cornell: 2.486%. For Cc1cccc(OCCC(=O)NC(C)c2nnc3n2CCC3)c1 (centres unmarked) the result was Mtb heat-shock: -15.48%. Cc1nc2n(n1)CC(NCc1ccc(Cl)c3cccnc13)CC2 (centres unmarked) gave Mtb heat-shock: -8.915%. Cc1ccc(C2(CN(C)Cc3snnc3C)CCNCC2)nc1 gave Mtb heat-shock: -22.76%.

COC(=O)CC1CSCCN1C(=O)CCc1c(C)nn(C)c1C (centres unmarked) read Mtb heat-shock: 3.569%. Result for CC(=O)Nc1ccc(Cl)c(C(=O)N(C)C(C)c2ccon2)c1 (centres unmarked) was Mtb heat-shock: -10.51%; Mtb growth Cornell: -1.173%. Cc1cccnc1N1CCN(Cc2cc(O)c3cccc(F)c3n2)CC1 gave Mtb heat-shock: -24.1%; Mtb growth Cornell: 25.76%. Result for Cc1oc(C)c(C(=O)NS(=O)(=O)c2ccc3c(c2)OCCO3)c1Br was Mtb heat-shock: -9.326%; Mtb growth Cornell: 6.395%. CCNCCOc1ccc(-c2cc(N)nc3[nH]ccc23)cc1 gave Mtb heat-shock: 0.9295%; Mtb growth Cornell: 21.99%. CCOC(=O)C1CCN(Cc2c(O)ccc3oc4c(c23)CCCC4)CC1 read Mtb heat-shock: 22.5%; Mtb growth Cornell: -6.496%. With Cc1ncncc1C(=O)N1CCOC(c2nc(C(C)C)n[nH]2)C1 (centres unmarked) the screen gave Mtb heat-shock: -3.117%; Mtb growth Cornell: -55.86%. Result for CC1CN(C(=O)c2ccc(C(N)=O)cc2)c2ccc(F)cc2O1 (centres unmarked) was Mtb heat-shock: -22.84%; Mtb growth Cornell: 3.792%.

For O=C(C1CCCO1)N1CCc2ncnc(NC3CCC3)c2CC1.O=C(O)C(F)(F)F (centres unmarked) the result was Mtb heat-shock: -8.605%; Mtb growth Cornell: 19.02%. Cc1cnn(C2CCCN(C(=O)c3ccccc3-n3cnnn3)C2)c1 (centres unmarked) gave Mtb heat-shock: -0.2761%. With Cc1ccc(N2CCC3(CCCN(C(=O)c4cccnc4)C3)C2)nn1.O=C(O)C(F)(F)F (centres unmarked) the screen gave Mtb heat-shock: -4.019%; Mtb growth Cornell: -5.939%. With CC(C(=O)NCCCn1ccnc1)n1cc(Br)cn1 (centres unmarked) the screen gave Mtb heat-shock: 5.922%; Mtb growth Cornell: 2.799%. Result for O=C(O)C(F)(F)F.O=C(O)C(F)(F)F.[H][C@]12CCN(Cc3nccs3)[C@@]1([H])CC[C@H](COCc1cccnc1)O2 was Mtb heat-shock: -2.582%; Mtb growth Cornell: 1.583%. With [H][C@@]12C[C@H](C(=O)Nc3ccccc3)[C@@]([H])(CN(S(=O)(=O)N(C)C)C1)O2 the screen gave Mtb heat-shock: 3.45%; Mtb growth Cornell: 25.06%. Cc1cnn(CCNCc2ccc(OCc3noc(C)n3)cc2)c1 gave Mtb heat-shock: 7.709%; Mtb growth Cornell: 3.922%. Result for Cc1cc(-c2cnc(C(C)C)nc2CN(C)C(=O)c2ccccn2)on1 was Mtb heat-shock: 11.62%; Mtb growth Cornell: 3.814%.

For COCC(=O)N1CCc2c(CNS(C)(=O)=O)n[nH]c2C1 the result was Mtb heat-shock: -16.96%; Mtb growth Cornell: 11.45%. With CCCS(=O)(=O)c1ccc(N2CCN(c3ccccn3)CC2)nn1 the screen gave Mtb heat-shock: 6.335%; Mtb growth Cornell: -52.11%. Result for NC(=O)CCn1cc(CNCc2csc(N)n2)c2ccccc21 was Mtb heat-shock: 7.464%; Mtb growth Cornell: -12.33%. Result for Cc1nc(CN2CCN(c3cc(CCN)ncn3)CC2)cs1 was Mtb heat-shock: -25.11%; Mtb growth Cornell: -19.69%. Cc1noc(CSc2ccc(C(F)(F)F)cn2)n1 gave Mtb heat-shock: 5.476%; Mtb growth Cornell: -8.424%. CC(=O)c1cn(CCC(=O)N[C@H](C(=O)O)C(C)C)c2ccccc12 gave Mtb heat-shock: -27.84%. Cn1ccnc1CCC1CCCCN1Cc1cnc(N2CCCC2)nc1 (centres unmarked) gave Mtb heat-shock: -23.67%. For CCOCCN1CCN(CCc2ccc3c(c2)CCO3)CC1 the result was Mtb heat-shock: -0.4723%; Mtb growth Cornell: -8.246%.

For reference, 4 entries once more:

Compound,Mtb heat-shock,Mtb growth Cornell
Cc1cc(NC(=O)c2ccc(N3CCOCC3)cc2)[nH]n1,20.19%,29.03%
CN(C)S(=O)(=O)N1CCC(Oc2ccc(C#N)cc2)CC1,9.562%,14.86%
CCOc1ccc(C(F)(F)F)cc1NC(=O)N1CCC(C(N)=O)CC1,-1.468%,8.02%
O=C(c1ncoc1-c1ccco1)N1CCCN(c2ncccn2)CC1,-15.55%,-